The record followed here is publication PMC10876703.

Sequences of proteins named here, by UniProt entry; tags and fusion partners are left off.
UniProt P30051: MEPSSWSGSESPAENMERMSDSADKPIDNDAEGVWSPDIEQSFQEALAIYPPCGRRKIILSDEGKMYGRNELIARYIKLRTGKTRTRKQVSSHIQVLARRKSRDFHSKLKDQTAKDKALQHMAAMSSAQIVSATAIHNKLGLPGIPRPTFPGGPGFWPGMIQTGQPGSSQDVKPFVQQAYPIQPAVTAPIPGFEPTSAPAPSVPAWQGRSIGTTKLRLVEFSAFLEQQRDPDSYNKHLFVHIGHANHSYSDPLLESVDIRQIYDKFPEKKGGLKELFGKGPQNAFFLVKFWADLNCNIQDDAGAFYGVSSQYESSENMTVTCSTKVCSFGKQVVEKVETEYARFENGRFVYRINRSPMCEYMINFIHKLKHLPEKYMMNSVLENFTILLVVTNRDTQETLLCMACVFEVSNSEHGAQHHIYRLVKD
UniProt P46938: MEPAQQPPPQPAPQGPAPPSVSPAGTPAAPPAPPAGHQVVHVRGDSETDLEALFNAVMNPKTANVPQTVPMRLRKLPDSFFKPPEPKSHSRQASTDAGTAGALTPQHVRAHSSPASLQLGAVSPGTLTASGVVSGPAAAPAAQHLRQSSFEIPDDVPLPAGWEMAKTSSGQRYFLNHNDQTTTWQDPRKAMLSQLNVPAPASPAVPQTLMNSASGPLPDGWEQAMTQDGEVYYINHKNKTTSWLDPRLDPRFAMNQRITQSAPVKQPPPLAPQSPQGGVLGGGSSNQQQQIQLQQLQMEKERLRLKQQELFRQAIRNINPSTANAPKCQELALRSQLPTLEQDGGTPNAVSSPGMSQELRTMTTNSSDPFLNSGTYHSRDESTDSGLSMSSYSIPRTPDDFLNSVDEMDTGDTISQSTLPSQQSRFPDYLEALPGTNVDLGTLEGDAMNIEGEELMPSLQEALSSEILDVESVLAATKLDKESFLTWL

No constants are given. Whether binding was seen depends on the method and setting. Binding seen in cells or lysates may run through a third protein. Some entries that bind do so weakly or less than the wild type.

For test [1], the target named is TEA domain transcription factor 1 (TEAD1) (mouse (endogenous in neonatal mouse cardiac fibroblasts and mouse heart)) (UniProt P30051). The experiment in a line: co-IP; co-immunoprecipitation of TEAD1 with YAP or BRD4 after treatment with VT103 (Supplementary Fig. 13b, c).
For test [2] the target is unchanged. Description: co-IP; TEAD1/YAP co-immunoprecipitation in vitro (NMCFs) and in vivo (mouse heart), with or without the TEAD1 inhibitor VT103.

With “Yes-associated protein (YAP) (from UniProt P46938 1-488)”, the binding result in test [1] is “no binding (condition: after treatment with VT103)”; in test [2], “binds”.
